Data on one molecule can be found in PMC8990461.

These are yes or no findings as the source states them, for the method shown. In cells and extracts the contact can be indirect. Binding can be weak; no strength is given.

For the assay, the target named is myosin tail domain of MYH9. Description: co-IP; Pierce Co-Immunoprecipitation kit; 5 mg protein of HCC cell lysate with 10 µg antibody or IgG (negative control), 4 °C overnight; eluate read by Western blot. Background: A western blot detects proteins with antibodies after separation by electrophoresis.

B1: ENKUR (Enkurin), overexpressed in HCC cells (protein, UniProt Q8TC29 1-256)
chain: MDPTCSSECIYNLIPSDLKEPPQPPRYISIFKATVKDDMQKAKTAMKTMGPAKVEVPSPKDFLKKHSKEKTLPPKKNFDRNVPKKPAVPLKTDHPVMGIQSGKNFINTNAADIIMGVAKKPKPIYVDKRTGDKHDLEPSGLVPKYINKKDYGVTPEYICKRNEEIKKAQEDYDRYIQENLKKAAMKRLSDEEREAVLQGLKKNWEEVHKEFQSLSVFIDSIPKKIRKQRLEEEMKQLEHDIGIIEKHKIIYIANNA
Turning to B1, the binding entry was “binds”.
